Measured values from PubChem BioAssay AID504594 (Broad Institute, 2011).
Among all 2,000 compounds or so, fewer than 10 were called active.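 The calls were made as follows: active = growth inhibition of at least 75% in every replicate, which also brings the mean inhibition to 75% or more; inconclusive = mean inhibition 75% or more but some replicate under 75%; inactive = the rest.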 The list shows a part of the results.

Experiment: growth inhibition of PfHsp90-dependent yeast, primary screen, antimalarial PfHsp90 inhibitor project, S. cerevisiae, BacTiter-Glo luminescence (AID 504594);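 also: 0% = DMSO neutral control wells and 100% = 20 µM radicicol control wells; higher value means stronger growth inhibition because the sign is flipped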
Details: S. cerevisiae expressing PfHsp90, BacTiter-Glo growth, 48 h; at 9.4 µM; hits give high values

Growth inhibition, inactive:
C[C@H](NC(=O)NCCc1ccccc1)C(=O)O -2.8%
O=Cc1ccc(O)c(O)c1 6.98%
COc1ccc(-c2cc(=O)oc3c(C)c(O)c(CN(C)C)cc23)cc1 9.69%
COC(=O)c1[nH]c2ccccc2c1NC(=O)CN1CCN(C/C=C/c2ccccc2)CC1 2.33%
COC(=O)c1cc(-c2c(C)oc3cc(OC)ccc3c2=O)c(C)o1 -6.22%
O=C1CCCC(=O)C1=Cc1c[nH]c2ccccc12 -5.74%
CC(=O)O[C@H]1CSC[C@H]1NC(=O)c1ccccc1 12%
C=C(C)c1nc2cc(OC)c(OC)cc2c(=O)o1 12.6%
CC(C)(S)[C@@H](N)C(=O)O 9.78%
CC1=C/C(=N\N=C2\NC(=O)C(CC(=O)Nc3ccccc3F)S2)CC(C)(C)C1 (stereo not given) 8.22%
COc1ccc(C(=O)Nc2ncc3c(n2)CC(C)CC3=O)cc1 (stereo not given) -12.5%
CC(=O)Oc1ccc2c(=O)c(Oc3ccccc3[N+](=O)[O-])coc2c1 0.628%
C[C@]12C=CC(=O)C=C1CCC1C3CC[C@](O)(C(=O)CO)[C@@]3(C)CC3OC312 (stereo not given in full) 0.333%
O=C1C=CC(=O)C(C2=C3C(=O)N(CCc4ccccc4)CC(=O)N3CCC2)=C1 0.713%
COc1cc(OC)c(C(=O)CCCN2CCCC2)c(OC)c1 -1.08%
CCN1CCn2c3c(c4cc(Cl)ccc42)CCCC31 (stereo not given) 5.58%
Cc1ccc2c(CC(=O)O)coc2c1 -1.25%
CCOC(=O)NN1C(=O)c2ccccc2NC1c1ccc(OC)c(OC)c1 (stereo not given) -6.91%
COc1cc2c(cc1OC)-c1cc(OCc3ccccc3Cl)nc(=O)n1CC2 21.4%
COc1ccccc1N1CCN(CC(O)COc2cccc3ccccc23)CC1 (stereo not given) 3.88%
CN1CCC(=C2c3ccccc3CC(=O)c3sccc32)CC1 -3.51%
COc1ccc(NC(=S)N2CCN(CCN3C(=O)c4cccc5cccc(c45)C3=O)CC2)cc1 1.82%
OC(CCCN1CCC(O)(c2ccc(Cl)cc2)CC1)c1ccc(F)cc1 (stereo not given) -2.57%
Clc1cc(-c2ccc(/C=N/n3cnnc3)o2)ccc1Br -1.41%
COc1ccc(-c2c(NC(=O)c3ccco3)n(C)c3ccccc3c2=O)cc1 0.407%
CC(C)(Sc1cc(C(C)(C)C)c(O)c(C(C)(C)C)c1)Sc1cc(C(C)(C)C)c(O)c(C(C)(C)C)c1 -3.01%
CSCCC(NC(C)=O)C(=O)Oc1ccc2c3c(c(=O)oc2c1)CCCC3 (stereo not given) 5.23%
CCOc1ccc(N2C(=O)CC(NCCNc3ccc([N+](=O)[O-])cn3)C2=O)cc1 (stereo not given) -0.321%
Cc1oc(/C=N/NC(=O)CC2(C)OCCO2)cc1Br -11.1%
CC(=O)O[C@H]1C[C@@]2(C)[C@@H](C[C@@H](O)[C@H]3[C@@]4(C)CC[C@@H](O)[C@@H](C)C4CC[C@@]32C)/C1=C(\CCC=C(C)C)C(=O)O (stereo not given in full) -0.768%
Cn1c(=S)n(C)c2ccccc21 0.566%
COc1ccc(C(C)=O)c2c1OCCO2 -3.84%
C=CCC1(Cl)C(=O)C(Cl)=C(N2CCOCC2)C1(OC)OC (stereo not given) -2.68%
CCC(=O)c1ccc(O)cc1 1.29%
Cc1cc(Cl)cc2c1NC(=O)[C@]21[C@@H]2C(=O)N(Cc3ccccc3)C(=O)[C@@H]2[C@@H]2CCCN21 6.75%
N/C(=N\OC(=O)CCCOc1ccc(Cl)cc1Cl)c1ccccn1 10%
COc1cc(C2Nc3ccccc3C(=O)N2c2ccccc2)ccc1O (stereo not given) 1.04%
Cc1ccc(-c2nn(-c3cccc(F)c3)cc2CN2CCN(c3ccccn3)CC2)o1 -8.98%
COc1cc(C(=O)N/C(=C\c2cn(C)c3ccccc23)C(=O)NCCCO)cc(OC)c1OC 13.5%
CCn1ccnc1CN(C)Cc1cn(-c2cccc(C)c2)nc1-c1cccc(F)c1 3.06%
Cc1ccc2nc(N=C(N)N)nc(C)c2c1 -4.91%
CC1(C)CC(=O)c2cc(O)ccc2O1 5.59%
c1cnc2c(c1)ccc1cccnc12 16.5%
CCOc1ccc(OCCSc2nc3ccccc3[nH]2)cc1 16.1%
CC(C)C1CC(CCNCc2ccc(N(C)C)cc2)(c2ccccc2)CCO1 (stereo not given) 7.99%
CN1CCc2cccc3c2[C@H]1Cc1ccc(O)c(O)c1-3 3.77%
CCC(NC(C)C)C(O)c1ccc(O)c(O)c1 (stereo not given) 4.7%
COc1ccccc1-c1c(C(F)(F)F)oc2cc(OC(=O)c3ccc([N+](=O)[O-])cc3)ccc2c1=O -25%
CN1CCN(C2=Nc3cc(Cl)ccc3Nc3ccccc32)CC1 13.4%
Cc1cccc(-n2c(Cc3ccccc3)n[nH]c2=S)c1 -0.133%
O[C@@H](CNC[C@H](O)c1ccccc1)c1ccccc1 6.3%
Cc1nc2ccccc2n1CC(=O)NC1CCCC1 -8.15%
O=C(Nc1cccc(Cl)c1)N1CCN2C(=O)c3ccccc3C12c1ccccc1 (stereo not given) 8%
CC(C)(C)c1csc(N/N=C/c2cccnc2)n1 -25.8%
NC12CC3CC(CC(C3)C1)C2 -15.1%

Structures from the list above containing an aryl thioether with sulfur outside any ring (2):
Growth inhibition, inactive:
CC(C)(Sc1cc(C(C)(C)C)c(O)c(C(C)(C)C)c1)Sc1cc(C(C)(C)C)c(O)c(C(C)(C)C)c1 -3.01%
CCOc1ccc(OCCSc2nc3ccccc3[nH]2)cc1 16.1%
